Measurements reported in PubChem BioAssay AID504834 (National Center for Advancing Translational Sciences (NCATS), 2011).
Hit rate of the full screen: of about 320,000 compounds, about 22,000 (6.9%) were called active. This list was built around the results that the source calls inconclusive (neither active nor inactive); the mix of calls is not that of the screen. Calls come from the whole dose curve; as a rule, active = well fitted inhibition curve with a large enough effect; inconclusive = small, poorly fitted or top-dose-only effect, or another doubt; inactive = no such curve, though single readings can be large or run the other way. Potencies beside an inconclusive call are fits to weak or partial responses and may not hold up.

Assay: Primary qHTS for delayed death inhibitors of the malarial parasite plastid, 96 hour incubation
Details: P. falciparum luciferase reporter growth; series mostly up to 28.7 µM
Procedure, shortened: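 P. falciparum expressing integrated firefly luciferase, in erythrocytes at 2% hematocrit, 0.05% parasitemia, incubated with compounds 96 h at 37 C, 5% CO2. Growth inhibition read as loss of luminescence; two-generation exposure targets delayed-death apicoplast inhibitors.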
Potency is the fitted concentration of half-maximal effect.

SMILES	Potency
Fc1ccc2[nH]c3c(NCCN4CCOCC4)ncnc3c2c1	active: 4.15 µM
CCC1Sc2ccc(S(=O)(=O)CCC(=O)Nc3cccc(Br)c3)cc2NC1=O (stereo not drawn)	inconclusive: 4.15 µM [inhibitor, partial curve]
CCCCCC(=O)N/N=C(\C)c1ccc(Cl)cc1	inactive
CCCCC[C@]12Cc3ccccc3C(O1)c1c(cc(C)oc1=O)O2	active: 0.675 µM
O=C(Cc1ccc(NC2=NC3CS(=O)(=O)CC3S2)cc1)N1CCN(c2ccc(F)cc2)CC1 (stereo not drawn)	active: 11.7 µM
Cc1ccc(S(=O)(=O)N2CCCCC2)cc1NC(=O)COC(=O)c1ccccc1F	inactive
CC(=O)c1ccc2c(c1)OCCOCCOc1ccc(C(C)=O)cc1OCCOCCO2	inconclusive: 7.38 µM [inhibitor, partial curve]
Cc1ccccc1C1CC(c2ccccc2OC(F)F)Nc2ncnn21 (stereo not drawn)	inactive
Cc1cccc(C(=O)NNC(=O)c2ccc(-c3ccccc3)cc2)c1	inconclusive: 4.15 µM [inhibitor, single point]
CCn1c(SCC(=O)Nc2ccc3c(c2)OCCO3)nnc1-c1c[nH]c2ccccc12	inconclusive: 18.5 µM [inhibitor, single point]
Cc1cc(C(F)(F)F)nn1CC(=O)NCc1ccccc1	active: 7.38 µM
CC(=O)n1cc(/C=N/NC(=O)c2sc(C)nc2C)c2ccccc21	inactive
Cc1ccc(C)c(NC(=O)NCc2ccccn2)c1	inconclusive: 1.04 µM [inhibitor, partial curve, poor fit]
CN(C)c1cc[n+](CC(=O)Nc2ccc(OC(F)F)cc2)cc1	active: 0.465 µM
COc1ccc(Cc2nc3ccc(C(=O)NCCn4ccnc4C)cc3o2)cc1OC	inactive
CCOC(=O)c1c(C)[nH]c(C)c1S(=O)(=O)NCC1CCN(Cc2ccccc2OC)CC1	inconclusive: 3.7 µM [inhibitor, full curve]
CCC(C)c1ccc(S(=O)(=O)N2CCN(c3ccccn3)CC2)cc1 (stereo not drawn)	inactive
O=C(NC1CCCC1)c1cc(S(=O)(=O)N2CCCC2)ccc1Cl	inactive
COc1ccc(CCNC(=O)CN(C)S(=O)(=O)c2ccc3nc(C)sc3c2)cc1OC	inactive
CC(C)CC(c1nnnn1C1CCCC1)N1CCN(C(=O)c2ccco2)CC1 (stereo not drawn)	active: 9.28 µM
Cc1ccc(NC(=O)/C(=C/C=C/c2ccccc2)NC(=O)c2ccccc2)cc1	inactive
O=[N+]([O-])c1cc(-c2n[nH]c(-c3ccccc3)n2)cc([N+](=O)[O-])c1	inactive
CCOC(=O)C1CCCN(C(=O)c2cn(C)c3ccc(S(=O)(=O)N(C)C)cc3c2=O)C1 (stereo not drawn)	active: 0.928 µM
COC(=O)C1=C(c2ccc(C(C)=O)cc2)C[C@@H]2CC[C@H]1N2C(=O)NC1CCCCC1	inconclusive: 14.7 µM [inhibitor, single point]
CCOc1ccccc1N(C(=O)CNC(=O)c1ccco1)C(C(=O)NC1CCCC1)c1cccnc1 (stereo not drawn)	inconclusive: 18.5 µM [inhibitor, single point]

Looked up above:
In Potency, O=[N+]([O-])c1cc(-c2n[nH]c(-c3ccccc3)n2)cc([N+](=O)[O-])c1 has inactive
In Potency, Cc1ccc(C)c(NC(=O)NCc2ccccn2)c1 has inconclusive: 1.04 µM [inhibitor, partial curve, poor fit]
In Potency, Cc1cc(C(F)(F)F)nn1CC(=O)NCc1ccccc1 has active: 7.38 µM

Carrying on:

SMILES	Potency
COc1ccc(-c2nn(CC(=O)Nc3ccc(Cl)c(Cl)c3)c(=O)c3ccccc23)cc1	inconclusive: 7.38 µM [inhibitor, partial curve]
CCOc1ccc(NS(=O)(=O)c2cc(OCC(N)=O)c(C)cc2Cl)cc1	active: 3.7 µM
COc1cc2c(cc1NC(=O)C(C)Sc1ccc(C)cc1)oc1ccccc12 (stereo not drawn)	inconclusive: 0.0586 µM [inhibitor, full curve, poor fit]
COc1ccccc1CNC(=O)CSc1ccc(-c2ccncc2)nn1	inactive
Cc1ccc(S(=O)(=O)Nc2cccc(C(=O)NCC(c3ccco3)N3CCCC3)c2)cc1F (stereo not drawn)	inconclusive: 9.28 µM [inhibitor, single point]
COCCSc1nnc(NC(=O)CSc2ccccc2)s1	inactive
O=C(CSc1ccc(Cl)cc1)Nc1ccccc1N1CCN(C(=O)c2ccccc2)CC1	inconclusive: 16.5 µM [inhibitor, single point]
CCSc1nnc(NC(=O)/C=C/c2ccc3c(c2)OCO3)s1	inactive
CC(=O)c1ccc2c(c1)N(CCCN1CCN(CCO)CC1)c1ccccc1S2	active: 13.5 µM
COc1ccc(OC)c(C(C(=O)NCc2ccco2)N(C(=O)Cn2nnc3ccccc32)C2CC2)c1 (stereo not drawn)	inconclusive: 8.28 µM [inhibitor, partial curve, poor fit]
CCOC(=O)N1CCC(NC(=S)Nc2ccc3nc(N4CCN(C)CC4)cc(C)c3c2)CC1	inactive
Cc1cc(C)cc(NC(=O)c2cc(C)n(Cc3cccs3)c2C)c1	inactive
Cn1c2ccccc2c(=O)c2c(=O)n(Cc3ccco3)c(-c3ccc(F)cc3)nc21	inconclusive: 2.33 µM [inhibitor, full curve, poor fit]
CCc1c(C(C)S(=O)(=O)c2ccccc2)[nH]c(=O)n1CC (stereo not drawn)	inactive
CC(=O)c1c(N=CN(C)C)nc(C)nc1-c1ccccc1	inconclusive: 0.0033 µM [inhibitor, full curve, poor fit]
Cc1nn(CC(=O)N(C)c2c(N)n(Cc3ccccc3)c(=O)[nH]c2=O)c(C)c1[N+](=O)[O-]	inconclusive: 0.586 µM [inhibitor, full curve, poor fit]
CCOC(=O)C1CCN(/C=C2/C(=O)NC(=O)N(c3ccc(OCC)cc3)C2=O)CC1	inconclusive: 0.0033 µM [inhibitor, full curve, poor fit]
Cc1ccc(C(=O)NCCN2CCN(C(=O)c3ccc(C)c(C)c3)CC2)cc1C	inactive
CCOc1ccc(N2C(=O)C3C(C2=O)C3(c2ccccc2)c2ccccc2)cc1 (stereo not drawn)	inconclusive: 5.86 µM [inhibitor, partial curve]
CCOC(=O)c1ccccc1NC(=O)C1COc2ccccc2O1 (stereo not drawn)	inconclusive: 18.5 µM [inhibitor, single point]
C[C@H](NC(=O)c1[nH]cnc1C(=O)Nc1ccc(Cl)cc1)C(=O)OC(C)(C)C	inconclusive: 11.7 µM [inhibitor, single point]
COc1ccc(C(=O)NCCNc2ncc(C(F)(F)F)cc2Cl)cc1[N+](=O)[O-]	inconclusive: 0.0928 µM [inhibitor, full curve, poor fit]
CC(C)(/C=N/O)/[N+]([O-])=C/c1ccco1	inactive
Cc1sc2ncnc(N3CCC(C(=O)Nc4ccc(Cl)cc4Cl)CC3)c2c1C	inconclusive: 10.4 µM [inhibitor, partial curve, poor fit]

An excerpt from above in order of SMILES length, low to high:
SMILES	Potency
CCOc1ccc(NS(=O)(=O)c2cc(OCC(N)=O)c(C)cc2Cl)cc1	active: 3.7 µM
CCOC(=O)c1c(C)[nH]c(C)c1S(=O)(=O)NCC1CCN(Cc2ccccc2OC)CC1	inconclusive: 3.7 µM [inhibitor, full curve]
CCOC(=O)C1CCCN(C(=O)c2cn(C)c3ccc(S(=O)(=O)N(C)C)cc3c2=O)C1 (stereo not drawn)	active: 0.928 µM

The list continues.

SMILES	Potency
Cc1ccc(CNc2ccc3c(c2)ncn3C)cc1	inactive
COc1ccc(C(=O)NCc2nnc(SCC(=O)Nc3ccccc3F)o2)cc1	inconclusive: 18.5 µM [inhibitor, single point]
CC1(C)CC(=O)c2c(O)cc(OCC(=O)N3CCN(c4ccccc4)CC3)cc2O1	inconclusive: 2.33 µM [inhibitor, single point]
COC(=O)c1ccc(/C=C/c2c(-c3ccc(OC)cc3)oc3ccccc23)cc1	inconclusive: 9.28 µM [inhibitor, partial curve, poor fit]
CCOc1ccc(C(=O)NCC2CCCO2)cc1OCC (stereo not drawn)	inconclusive: 4.15 µM [inhibitor, partial curve, poor fit]
Cc1ccccc1NC(=O)C(=O)Nc1ccccc1C	inactive
Cc1cccc(NC(=S)NC(=O)CCc2ccccc2)c1C	inconclusive: 14.7 µM [inhibitor, single point]
CC(=O)c1ccccc1OCCOc1ccccc1C(C)=O	inconclusive: 10.4 µM [inhibitor, single point]
Cc1cc(C(C)(C)C)cc(S(=O)(=O)NCCc2ccncc2)c1C	inactive
O=C(NC1CCCC1)c1cc(-c2ccccc2O)on1	inactive
CCCc1ccc(-c2ccc(/C=C/C(=O)O)cc2)nc1	inconclusive: 4.15 µM [inhibitor, single point]
Brc1ccc(-n2cc(-c3ccccc3)c3c(NN4CCOCC4)ncnc32)cc1	inconclusive: 0.828 µM [inhibitor, partial curve, poor fit]
COc1ccc(-c2cc(C(=O)N3CCCc4ccccc43)no2)cc1	inactive
COc1ccc2[nH]cc(CCn3ccc(O)c(C/C=C/c4ccccc4)c3=O)c2c1	inconclusive: 14.7 µM [inhibitor, single point]
Cc1[nH]c2ccccc2c1/C=C/c1nc2ccccc2c(=O)n1-c1cccc([N+](=O)[O-])c1	active: 3.7 µM
O=c1c(C=NCC2CCCO2)c(-c2ccccc2)[nH]n1-c1ccc([N+](=O)[O-])cc1 (stereo not drawn)	inconclusive: 20.8 µM [inhibitor, partial curve, poor fit]
Cc1cccc(NC(=O)COc2coc(CN3CCN(Cc4ccccc4)CC3)cc2=O)c1	inconclusive: 18.5 µM [inhibitor, single point]
CCOc1ccc(/C=C(/NC(=O)c2ccccc2)C(=O)NCCC(=O)O)cc1	inactive
CCN(CC)CCn1c2c(c(SCC(=O)Nc3nc(C)cs3)nc1=O)CCCC2	inconclusive: 18.5 µM [inhibitor, single point]
CCCCC(=O)Nc1nc(C)c(-c2csc(Nc3ccccc3OC)n2)s1	inconclusive: 9.28 µM [inhibitor, partial curve]
CCN(c1ccccc1)S(=O)(=O)c1cc([N+](=O)[O-])ccc1N	inactive
CCOP(=O)(OCC)C(C)(C)NC(=O)Nc1ccc(Cl)c(Cl)c1	inactive
O=CC=O	inconclusive: 1.69 µM [inhibitor, full curve, poor fit]
